Experimental findings from PubChem BioAssay AID2685 (National Center for Advancing Translational Sciences (NCATS), 2010) are described below.

This assay can be described thus: qHTS Assay for Lipid Storage Modulators in Drosophila S3 Cells.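 On cell number change: cells counted by Cell Tracker Red CMTPX staining in the red channel.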 Conditions: BODIPY lipid droplet fluorescence, 18-24 h; for cell number change: measured here: cell count max response, cells fed with added oleic acid. In a few lines: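 Laser-scanning cytometry quantifies lipid droplet accumulation (500–530 nm total intensity; droplet/cell object ratio) in oleic acid-fed (400 uM added) Drosophila S3 cells treated with a concentration series. 20 uM Triacsin C defined 100% inhibition.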
Background: Quantitative high-throughput screening tests each substance at several concentrations.

Setting [1] is: measured here: lipid fluorescence (Fed channel) AC50, cells fed with added oleic acid.
The mark [2] stands for this setting: measured here: cell number channel AC50, cells fed with added oleic acid.

The list shows a part of the results. These are further read-outs of the screen, such as a control signal, another cell line or another target. No call is given for them. Compounds called inactive in the main read-out are mostly missing here. The note in brackets gives the kind of curve behind each potency; many fits are weak.

In the case of `CCCCOCCCn1c(-c2ccco2)nc2nc3ccccc3nc21`, the cell number change was -28.6%. Also, the AC50 (as a rule, the concentration at which the activity in the assay is half-maximal) under setting [1] was 29.1 µM [falling, single point].

Take `CCC(C)NC(=O)c1cn(CC)c2cc(N3CCN(C(=O)c4ccco4)CC3)c(F)cc2c1=O` (centres undefined): the cell number change is -86.5%. Moreover, the AC50 under setting [2] was 20.6 µM [falling, partial curve]. For the same molecule, the AC50 under setting [1] was 1.16 µM [falling, partial curve, poor fit].

As to `CC(C)(C)NC(=O)C(=O)NNC(=O)COc1ccc(Br)cc1`, the cell number change is -21.2%. Also, the AC50 under setting [2] was 0.00461 µM [falling, full curve, poor fit].

As to `CCCn1c(SCc2ccc(Cl)cc2)nc2c1c(=O)[nH]c(=O)n2C`, the cell number change was determined as 0.417%. In addition, under setting [1], the AC50 was 16.4 µM [rising, single point].

Consider `Cc1[nH]n(-c2ccccc2)c(=O)c1C(C[N+](=O)[O-])c1ccc(F)cc1` (centres undefined), for which the cell number change was -36.8%. Besides, under setting [2], the concentration at half-maximal activity (AC50) was 5.17 µM [falling, partial curve]. Under setting [1], the half-maximal activity concentration (AC50) was 5.8 µM [falling, single point].

Take `O=C(/C=C/c1cccs1)NCc1cccnc1`: the cell number change is -20.2%. Moreover, the AC50 under setting [2] is 0.731 µM [falling, full curve, poor fit]. In addition, under setting [1], the AC50 is 6.51 µM [rising, single point].

Turning to `CCOC(=O)c1cnn(-c2ccc(C)cc2)c1N`, the AC50 under setting [2] was 0.206 µM [rising, full curve, poor fit].

Take `COc1ccc(C(=O)NNc2ccccc2)cc1`: the cell number change was determined as 13.4%. Besides, the AC50 under setting [2] is 6.51 µM [falling, single point]. Further, the AC50 under setting [1] is 0.00411 µM [rising, full curve, poor fit].

Consider `CC1CCCC(NC(=O)CCNC(=O)c2ccc([N+](=O)[O-])cc2)C1C` (centres undefined), for which the cell number change came out at 10.8%.

With `COc1ccccc1OCCC(=O)OCC(=O)Nc1cc(S(=O)(=O)N2CCOCC2)ccc1Cl`, the cell number change is -6.63%.

Consider `CC(C)Sc1nc2ccccc2n1CC(=O)O`, for which the cell number change was found to be 0.825%. For the same molecule, under setting [1], the AC50 is 29.1 µM [rising, single point].

As to `Cc1cc(C)nc(N(C#N)CN2C(=O)c3ccccc3C2=O)n1`, the cell number change was -19.1%. In addition, the AC50 under setting [1] is 6.51 µM [falling, single point].

Consider `O=C(CCN1C(=O)C2C3C=CC(C3)C2C1=O)N1CCN(c2cccc(Cl)c2)CC1` (centres undefined), for which the cell number change amounted to 9.62%.

On to `CC(=O)Nc1nc2c(C)cc(NC(=O)C3CCCCC3)cc2s1`, for which the cell number change was 132%. Also, under setting [2], the AC50 was 29.1 µM [rising, single point]. Further, under setting [1], the AC50 is 5.17 µM [rising, single point].

Take `O=C(NNc1ccccn1)c1ccccc1CC[N+](=O)[O-]`: the cell number change came out at 17.8%. Moreover, under setting [1], the AC50 was 25.9 µM [rising, single point].

As to `CCC(=O)N1CCc2cc(S(=O)(=O)NCCC(=O)NCc3ccccc3OC)ccc21`, the AC50 under setting [1] was 29.1 µM [rising, single point].

With `O=C(Cc1cccc2ccccc12)Nc1cc(Cl)ccc1C(=O)O`, the cell number change came to 10.2%.

Regarding `O=C(NCc1nc2ccccc2[nH]1)C1=C[C@H](c2ccc3c(c2)OCO3)C[C@H](OCCCCO)O1`, the cell number change was 18.7%. Besides, under setting [1], the AC50 is 0.00461 µM [rising, full curve].

On to `O=C(N/N=C/c1c[nH]c2ccccc12)c1ccccc1O`, for which the cell number change is -21.7%. For the same molecule, under setting [1], the AC50 is 1.03 µM [falling, full curve].

In the case of `Cc1ccc(CC(=O)Nc2ccc(S(=O)(=O)Nc3ncccn3)cc2)cc1`, the cell number change is 21.7%.

As to `N#CC1=C(SCC(=O)c2ccc(Cl)cc2)NC2=C(C(=O)CCC2)C1c1ccco1` (centres undefined), the cell number change is -25.1%. Further, the half-maximal activity concentration (AC50) under setting [1] was 0.58 µM [rising, partial curve].

Take `CCC1CCCCN1C(=O)CCc1nnc(Cc2cc(OC)ccc2OC)o1` (centres undefined): the cell number change was -21.2%. Also, the concentration at half-maximal activity (AC50) under setting [1] was 23.1 µM [falling, partial curve].

As to `O=C(NCCC(c1ccccc1)c1ccccc1)c1cnc2sccn2c1=O`, the cell number change was -19.8%.

With `Cc1cc(C(=O)NNC(=O)Cc2ccc(Cl)c(Cl)c2)c(C)o1`, the AC50 under setting [2] is 0.92 µM [rising, partial curve].

With `CCOC(=O)c1cccc(N/C=C/C(=O)c2ccc(OC)c(OC)c2)c1`, the cell number change is -9.63%. Moreover, the AC50 under setting [1] is 20.6 µM [falling, single point].

Consider `Cc1ccc(C(=O)N2CC(C)CC(C)C2)cc1NC1=NC2CS(=O)(=O)CC2S1` (centres undefined), for which the cell number change was determined as 25.6%.

For the molecule `Cc1c(N2C(=O)CSC2c2ccco2)c(=O)n(-c2ccccc2)n1C` (centres undefined), the cell number change is -22.4%. Besides, the AC50 under setting [2] was 0.82 µM [falling, full curve, poor fit]. Further, under setting [1], the AC50 is 29.1 µM [falling, single point].

Regarding `CCOc1cc(C2NN=C(c3ccc(C)cc3)S2)ccc1O` (centres undefined), the cell number change is 40%. For the same molecule, the AC50 under setting [2] is 20.6 µM [rising, single point]. For the same molecule, under setting [1], the AC50 is 2.06 µM [rising, partial curve, poor fit].

For `CCOc1ccc(C(=O)N/N=C/c2ccccc2[N+](=O)[O-])cc1`, the cell number change was determined as 6.37%. Moreover, the concentration at half-maximal activity (AC50) under setting [1] is 2.91 µM [rising, full curve, poor fit].

As for `Cc1ccccc1NC(=O)C(C)OC(=O)CNS(=O)(=O)c1ccc(C#N)cc1` (centres undefined), under setting [1], the AC50 was 6.51 µM [rising, single point].

For `COc1ccc(OC)c(Cc2nnc(CCC(=O)NC3C4CC5CC(C4)CC3C5)o2)c1` (centres undefined), the cell number change was -40.1%. The AC50 under setting [2] is 18.4 µM [falling, single point]. Besides, under setting [1], the AC50 is 10.3 µM [falling, partial curve].

As for `COc1cccc(CNC2CCCC2)c1`, the cell number change was -3.97%. In addition, the AC50 under setting [2] was 0.082 µM [falling, full curve, poor fit].

As to `N#C/C(=C/c1ccc(N2CCCCC2)o1)C(=O)NCCc1c[nH]c2ccccc12`, the cell number change is -45.6%. In addition, under setting [2], the AC50 is 20.6 µM [falling, partial curve]. Also, under setting [1], the AC50 was 20.6 µM [falling, partial curve].

In the case of `COc1ccc(NC(=S)c2ccccc2)cc1`, the cell number change is 66.8%. Further, under setting [2], the concentration at half-maximal activity (AC50) is 5.8 µM [rising, full curve]. Also, under setting [1], the AC50 is 5.17 µM [rising, full curve, poor fit].

Consider `O=c1[nH]c2ccsc2c(=O)n1-c1ccc(F)c(Cl)c1`, for which the cell number change was -14.7%. Under setting [2], the AC50 is 0.461 µM [falling, full curve, poor fit]. The AC50 under setting [1] was 0.58 µM [falling, single point].

As to `CCS(=O)(=O)N1Cc2ccccc2CC1C(=O)Nc1nnc(SCc2ccc(C#N)cc2)s1` (centres undefined), the cell number change came to 46.2%. Besides, the AC50 under setting [2] was 18.4 µM [rising, single point].

Take `O=c1[nH]c(=O)n(C2OC(CO)C(O)C2O)cc1Br` (centres undefined): the cell number change stood at 1.26%. For the same molecule, the AC50 under setting [2] was 7.31 µM [rising, partial curve, poor fit]. For the same molecule, the AC50 under setting [1] is 5.8 µM [rising, full curve].

In the case of `COCCCNC(=O)c1ccc(NS(C)(=O)=O)cc1`, the cell number change was -107%. Under setting [2], the AC50 was 20.6 µM [falling, partial curve].

On to `Fc1ccccc1NC(=S)N/N=C/c1ccccc1Br`, for which the cell number change was found to be 36.9%. For the same molecule, under setting [2], the AC50 was 2.31 µM [rising, full curve].

Consider `Cc1nc(C)c(-c2ccn(S(=O)(=O)c3ccc(Cl)cc3)n2)o1`, for which the cell number change was -24.8%.

`O=C(CNC(=O)C1CCCCC1)NC1CCCCC1`: the cell number change worked out at 6.08%. Besides, the half-maximal activity concentration (AC50) under setting [1] is 32.6 µM [rising, single point].

As to `CCOc1ccc(CC(=O)Nc2ccc(-c3ccc4nnc(C)n4n3)cc2)cc1`, the AC50 under setting [2] is 3.66 µM [falling, partial curve] and the AC50 under setting [1] is 5.17 µM [falling, partial curve].

Take `COCCNc1nnc(SCC(=O)Nc2sc3c(c2C(=O)c2ccccc2)CCCC3)s1`: the cell number change was -28.8%. Also, under setting [1], the AC50 was 18.4 µM [falling, partial curve, poor fit].

As for `O=C(NC1CCCC1)c1cc(-c2cccc(Cl)c2)on1`, the cell number change came out at 23.3%. Further, under setting [1], the AC50 was 0.0291 µM [rising, full curve].

Consider `CC(=O)c1ccc(N2CCN(S(=O)(=O)c3cccc4nsnc34)CC2)cc1`, for which the cell number change turned out to be 8.64%. Also, under setting [1], the half-maximal activity concentration (AC50) is 0.116 µM [rising, full curve].

As to `O=c1cnnc(Nc2ccc(F)cc2)[nH]1`, the cell number change was -43.1%. Besides, under setting [2], the concentration at half-maximal activity (AC50) was 29.1 µM [falling, single point]. Moreover, the AC50 under setting [1] is 23.1 µM [falling, single point].

On to `COc1ccc(NC(=O)c2cnc3sccn3c2=O)cc1`, for which the cell number change turned out to be 22.7%. Also, the AC50 under setting [1] was 16.4 µM [rising, single point].

As to `COc1cc(S(=O)(=O)NCCN2CCOCC2)c(OC)cc1Cl`, the cell number change was -194%. In addition, the AC50 under setting [2] was 25.9 µM [falling, partial curve].

For the molecule `COc1ccc(C(=O)NC(C)c2nnc(SCC(=O)Nc3nc4ccccc4s3)n2C)cc1` (centres undefined), the cell number change was -16.3%.

With `Cc1ccc(C)c(S(=O)(=O)N2CCN(Cc3ccc(O)c4ncccc34)CC2)c1`, the cell number change was determined as 2.3%.

In the case of `CCOc1ccc(/C=N/NC(=O)CN2CCCCC2)cc1OCC`, the cell number change is -12.2%. The half-maximal activity concentration (AC50) under setting [1] is 0.58 µM [rising, partial curve, poor fit].

In the case of `Cc1cccc(N2CCN(S(=O)(=O)c3cc4c(cc3Cl)NC(=O)CO4)CC2)c1C`, the cell number change stood at 24.5%. Under setting [2], the AC50 is 0.058 µM [rising, full curve, poor fit].

For `Cc1cnc(C(=O)NC(C)CCc2ccccc2)cn1` (centres undefined), the cell number change amounted to 9%. For the same molecule, the AC50 under setting [2] was 6.51 µM [rising, partial curve, poor fit]. Also, under setting [1], the concentration at half-maximal activity (AC50) is 6.51 µM [rising, partial curve].

As to `OC(CNCc1ccco1)Cn1c2ccc(Br)cc2c2cc(Br)ccc21` (centres undefined), the AC50 under setting [1] is 4.11 µM [rising, single point].

For `CC(=O)Nc1ccc(OCCC[n+]2ccccc2)cc1`, the cell number change was -13.7%. Further, the concentration at half-maximal activity (AC50) under setting [1] was 0.326 µM [falling, partial curve, poor fit].

As for `CCN(C(=O)c1cc(Cl)ccc1OC)C1CCCCC1`, the cell number change was 20.1%. For the same molecule, the AC50 under setting [1] was 29.1 µM [rising, single point].

Regarding `Nc1nc2n(n1)C(c1cccs1)CC(c1ccccc1)N2` (centres undefined), the cell number change came out at 27.9%. The AC50 under setting [2] is 0.00731 µM [rising, full curve, poor fit]. The AC50 under setting [1] is 0.146 µM [rising, full curve, poor fit].

Consider `Cc1cc(C(=O)CN2C(=O)NC3(CCCc4sccc43)C2=O)c(C)n1-c1ccc(Cl)cc1` (centres undefined), for which the cell number change was -2.08%. Further, the AC50 under setting [1] was 2.59 µM [rising, single point].

On to `O=C(COc1ccc(S(=O)(=O)NC2CCCC2)cc1)NCC1CCCO1` (centres undefined), for which the cell number change was -13.9%. Under setting [2], the AC50 is 6.51 µM [falling, single point]. The AC50 under setting [1] was 2.31 µM [falling, single point].
